# In all, about 33,000 sequences were measured (“E-score (-0.5 to 0.5)”: median about -0.0014, highest 2% from about 0.25 on). The list shows a part of the results.
# Target: T1, Cad1 (UniProt P24813)
# T1 sequence: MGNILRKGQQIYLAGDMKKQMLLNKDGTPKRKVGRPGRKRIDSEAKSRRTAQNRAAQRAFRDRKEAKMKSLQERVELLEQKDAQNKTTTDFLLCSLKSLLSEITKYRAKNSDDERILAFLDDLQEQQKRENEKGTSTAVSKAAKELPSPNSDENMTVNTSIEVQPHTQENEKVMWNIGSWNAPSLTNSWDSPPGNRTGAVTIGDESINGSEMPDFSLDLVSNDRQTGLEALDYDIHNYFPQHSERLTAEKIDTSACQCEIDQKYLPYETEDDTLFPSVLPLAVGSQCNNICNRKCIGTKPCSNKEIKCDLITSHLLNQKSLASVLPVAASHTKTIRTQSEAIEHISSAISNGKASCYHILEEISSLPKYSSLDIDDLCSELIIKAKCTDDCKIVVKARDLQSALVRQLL
# Assay: PBM E-score (8-mer binding enrichment) (E-score (-0.5 to 0.5)); higher = stronger / more preferred TF binding
# Conditions: protein concentration: 100 nM; construct: GST-full length
# Summary of the method: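 Using PURExpress in vitro transcription/translation, GST-tagged yeast transcription factors were made in full-length or DNA-binding-domain form. These were applied at about 100-200 nM to double-stranded universal all-10-mer Agilent arrays, and bound protein was detected with fluorescent anti-GST. Scans were normalised with masliner before the Universal PBM Analysis Suite assigned E-scores to ungapped eight-base words pooled with their reverse complements.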
row,Sequence,PBM E-score
1,AGCGCCGG,-0.0389
2,AGCCTCGG,-0.0902
3,ACGCGCGT,0.217
4,AAAGGGCT,-0.162
5,TATTATAA,0.185
6,AGATGTCA,0.0664
7,ACGTACAC,0.0387
8,GTGATCAA,0.15
9,AGTGCGCG,-0.0357
10,CCGCACGA,0.0304
11,ATAGCACG,-0.093
12,CTAATGAG,-0.0812
13,ATGTTACC,0.00145
14,AAAACGTT,0.0386
15,ACCGGATA,-0.00264
16,CAATAGTC,-0.131
17,CCCATGAC,-0.065
18,AAGGTATT,0.0376
19,AAGCGGTG,-0.222
20,GTGCGGGA,-0.0389
21,ACGCGCCT,0.0859
22,CAAATAAA,0.207
23,GGCAGGCA,-0.186
24,GTGGACTA,0.144
25,CCTCAAGC,-0.204

row,Sequence,PBM E-score
1,CGGTAACA,0.213
2,CCTAGATA,-0.0467
3,GCGAGCCC,-0.0806
4,AATAGTCG,0.167
5,GCCCGTGA,-0.15
6,GCCTAGCC,-0.104
7,CGTGACCA,-0.0732
8,CTGTAGGA,-0.029
9,AAGAGGCG,-0.0844
10,AGAGCCAC,-0.305
11,AAGCACTT,-0.00317
12,ACACAACT,0.0775
13,AGCATTGA,-0.0303
14,AGGGAGCA,-0.368
15,TTCGTAAA,-0.00446
16,AGCTCATA,0.0989
17,AACTCACT,-0.0478
18,GGCCAAAC,0.00291
19,CATTGGCA,0.132
20,AGTCTTGG,-0.128
21,CGGCTAGC,0.044
22,TCCCCGCA,-0.0965
23,AAGGGGAT,-0.12
24,ATATTCGC,0.163
25,GTCCGAGA,0.151

row,Sequence,PBM E-score
1,CAAAGTTG,-0.0626
2,AAGAACAT,0.0815
3,CACATCGA,-0.0624
4,CCCCCTAG,-0.363
5,ACGCGCAG,0.0787
6,GAAATCGC,-0.00585
7,AACTGTTC,0.122
8,AGCCCCAA,-0.0194
9,CCACACTA,0.183
10,CCTATGTC,-0.123
11,AATCCAGC,-0.0176
12,GATACCCC,-0.0835
13,ACTCATCT,0.0552
14,CTGGAGAA,-0.206
15,CAATTCGG,0.031
16,CAGAAAAG,0.0397
17,AAATCTCC,-0.193
18,AAGTCGAT,0.0428
19,CTGAATAC,0.0231
20,TCATGCAA,0.0998
21,AGCGATAC,0.0765
22,CAGATAGG,-0.199
23,ACCAAAGC,-0.202
24,AGGGTGGG,0.0517
25,ACGCGTGC,0.14

row,Sequence,PBM E-score
1,AGAGCGAT,-0.12
2,ATCTCAGG,-0.0169
3,AGCCAACA,-0.0383
4,AGCCGGCA,0.128
5,CATGTTAG,-0.0341
6,ATGATTTG,0.137
7,CCTACAAC,0.112
8,GCACGTCA,-0.023
9,ATTTGTAG,0.0654
10,GCCACACC,-0.0071
11,ATCACGTA,-0.0221
12,TGGTACAA,0.0909
13,ACTAATCC,0.242
14,CGGGAGGC,-0.234
15,ATTGGATC,0.0773
16,AACCGCGG,0.224
17,CTGAGTTA,-0.0218
18,TATTATGA,-0.00765
19,GCCTGCCC,-0.251
20,GAGGGCCC,-0.322
21,AAGCGCCT,-0.165
22,CGAATTTA,0.0741
23,ACCCCTGC,-0.307
24,GCAATGTA,0.0443
25,GCATTGGC,-0.14

row,Sequence,PBM E-score
1,TAGGCATA,-0.0108
2,CACTTTGA,-0.149
3,CCCTCCAA,-0.119
4,ACTATCTG,0.0525
5,AAGTGCAT,-0.00768
6,ACCAGAAA,-0.193
7,AGGCTCAT,-0.244
8,ACCTGTAA,0.00028
9,CCCAGTAA,-0.00977
10,ACAGAAAT,0.00754
11,TCGAAGAA,-0.0403
12,ACATCGAG,-0.161
13,TTGTAAAA,-0.162
14,GCGTTAAC,0.257
15,CTTTATGC,0.104
16,AAATTGGC,0.00922
17,AACGGCTG,-0.0519
18,AGCGCGAG,0.0178
19,AAGCCACG,-0.0394
20,CCATACAC,0.0649
21,CGAGATAG,-0.0223
22,TAATCCGA,0.111
23,CTTAAAAG,-0.118
24,ACAAGATG,-0.00425
25,ATTCGCAG,0.162

# Copied from the results shown for reference:
row,Sequence,PBM E-score
2,AGCCTCGG,-0.0902
3,ACGCGCGT,0.217

# More results.

row,Sequence,PBM E-score
1,ACAAGGAG,-0.0542
2,AAGTTAGA,0.0486
3,TCTGCTAA,-0.0568
4,ATTAATCC,0.161
5,CCCACGCA,-0.0746
6,ACGTGGTC,-0.104
7,AGTTAATG,0.0921
8,ACTGGATA,0.102
9,CTTGCTAC,-0.0445
10,ATGTAGGG,-0.133
11,ACACTTAA,0.0626
12,AACCCCGT,-0.0838
13,GCCTAGAC,-0.191
14,CAGTATAA,0.00832
15,AAACAGTC,-0.11
16,AGCGAATC,0.091
17,GATACTCC,0.00922
18,ACATTGCC,0.0252
19,CGGGAGAG,-0.269
20,TCGTTTCA,0.207
21,CGAGTCGA,0.217
22,CTTGACGA,-0.189
23,GATACCAA,0.138
24,AAAGTATG,-0.136
25,CAAAAAAG,0.164

# Some values from above:
# In PBM E-score, CCTCAAGC is entered as -0.204
# In PBM E-score, ACAAGGAG is entered as -0.0542
# In PBM E-score, AACTCACT is entered as -0.0478
# In PBM E-score, CAATTCGG is entered as 0.031
# In PBM E-score, GATACCAA is entered as 0.138

# Next results

row,Sequence,PBM E-score
1,ACGTGGTA,0.0659
2,CTCGCAAC,-0.114
3,GCCTACGC,-0.181
4,AATAATAG,0.077
5,CATCGCGC,0.051
6,CGGCTTAC,0.24
7,AAGGAAAT,-0.036
8,ATCTGTCC,-0.0748
9,AAGAACAG,0.00311
10,CGAGAGTC,-0.149
11,AGTTGTAC,-0.164
12,CGCAGCAG,0.0647
13,GTGCCGAA,-0.0386
14,AGGCAGGA,-0.2
15,GACAGCAC,0.0818
16,GACAGAAA,0.0205
17,AGCGGGTC,-0.158
18,CAAAGAAG,-0.0465
19,CCATGGAG,-0.156
20,ATATGGGA,-0.132
21,CCTAGCCA,-0.00624
22,AAGAGAAC,0.0515
